No constants are given. Whether binding was seen depends on the method and setting. Binding seen in cells or lysates may run through a third protein. Some entries that bind do so weakly or less than the wild type.
Biological target: T1, platelet collagen receptor GPVI (human (endogenous in platelets)), Q9HCN6
T1 chain: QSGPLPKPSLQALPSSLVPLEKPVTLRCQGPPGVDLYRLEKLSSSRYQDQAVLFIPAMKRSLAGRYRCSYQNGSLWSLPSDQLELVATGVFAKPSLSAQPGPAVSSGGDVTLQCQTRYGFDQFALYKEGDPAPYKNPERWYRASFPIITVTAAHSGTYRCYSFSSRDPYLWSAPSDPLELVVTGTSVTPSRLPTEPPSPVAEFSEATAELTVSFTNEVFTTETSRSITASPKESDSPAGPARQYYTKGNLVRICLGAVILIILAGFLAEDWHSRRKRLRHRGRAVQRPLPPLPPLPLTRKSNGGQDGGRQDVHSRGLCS
Assay: co-IP; 1 x 10^9 washed human platelets lysed in 1% Brij97 lysis buffer, pre-cleared; immunoprecipitation with anti-human GPVI (HY101) or isotype control (MOPC-21) on protein G sepharose, 90 minutes at 4°C; western blot for Tspan9 and GPVI
Conditions: remark: other sources report otherwise

B1: tetraspanin Tspan9, O75954 1-239 (protein)
chain: MARGCLCCLKYMMFLFNLIFWLCGCGLLGVGIWLSVSQGNFATFSPSFPSLSAANLVIAIGTIVMVTGFLGCLGAIKENKCLLLSFFIVLLVILLAELILLILFFVYMDKVNENAKKDLKEGLLLYHTENNVGLKNAWNIIQAEMRCCGVTDYTDWYPVLGENTVPDRCCMENSQGCGRNATTPLWRTGCYEKVKMWFDDNKHVLGTVGMCILIMQILGMAFSMTLFQHIHRTGKKYDA
B1 was tested, and the binding was “binds”.

Reference: article PMC5706974
